Experimental findings from paper PMC12670160, “A drug-repurposing screen of FDA- and EMA-approved drugs identifies two NF-κB inhibitors active against eumycetoma” (Journal of Antimicrobial Chemotherapy, 2025) are described below.

Counter-ions that a name gives are not always drawn. Screen size: about 5,300 compounds; about 130 (2.5%) showed an effect of 50% or more. The list shows a part of the results. Peptide text beside a SMILES is read from it.

The subject of this experiment is M. mycetomatis strain mm55. To be noted: primary screen, metabolic activity vs growth control; 96 h, 2 µM; inhibitor.
Regarding `CCc1ccc(CCOc2ccc(CC3SC(=O)NC3=O)cc2)nc1` (centres unmarked) [ONC0004237, pioglitazone hydrochloride], the “% viability” value turned out to be 114.2%.

Take `C=Cc1c(C)c2cc3nc(c(CC(=O)O)c4[nH]c(cc5nc(cc1[nH]2)C(C)=C5CC)c(C)c4C(=O)O)C(CCC(=O)O)C3C` (centres unmarked) [ONC0000409, chlorophyllin chlorin e6]: the “% viability” value was 49.9%.

For `CC(C)(C)c1ccc(/C=C/C(=O)Nc2ccc3c(c2)OCCO3)cc1` [ONC0001384, amg9810], the “% viability” value was 126.8%.

With `CC(C)Nc1cc(-c2c[nH]c(C(=O)N[C@H](CO)c3cccc(Cl)c3)c2)c(Cl)cn1` [ONC0001826, ulixertinib], the “% viability” value is reported as 83.56%.

On to `Cc1ccc(N(CC2=NCCN2)c2cccc(O)c2)cc1` [ONC0000668, phentolamine hydrochloride], for which the “% viability” value is reported as 93.19%.

Consider `CN1[C@@H]2C[C@@H](O)C[C@H]1[C@@H]1O[C@@H]12` [ONC0002813, scopine], for which the “% viability” value is reported as 95.17%.

For `C[C@H](N)C(=O)N[C@@H](CCC(N)=O)C(=O)O` [ONC0002785, lalaninelglutamine] (H-Ala-Gln-OH), the “% viability” value was 109.9%.

`Cc1[nH]c2ccc(Cl)cc2c1C1=CCNCC1` [ONC0001351, emd386088]: the “% viability” value was 76.74%.

On to `O=C(O)CCc1nc(-c2ccccc2)c(-c2ccccc2)o1` [ONC0003879, oxaprozin], for which the “% viability” value was found to be 79.71%.

In the case of `Cc1ncc([N+](=O)[O-])n1CC(O)CN1CCOCC1` (centres unmarked) [ONC0001844, morinidazole], the “% viability” value stood at 126.6%.

On to `Cc1cc(SCc2sc(-c3ccc(C(F)(F)F)c(F)c3)nc2C)ccc1OCC(=O)O` [ONC0001755, gw0742], for which the “% viability” value stood at 61.33%.

In the case of `Clc1ccc2c(c1)C(N1CCNCC1)=Nc1ccccc1O2` [ONC0005509, amoxapine], the “% viability” value is recorded as 96.28%.

As to `O=C(Cn1ccnc1[N+](=O)[O-])NCc1ccccc1` [ONC0002112, benznidazole], the “% viability” value was found to be 62.1%.

For the compound `O=C1c2ccccc2C(=O)C1c1ccccc1` [ONC0000611, phenindione], the “% viability” value turned out to be 117.3%.

On to `CC(C)[C@@H](C)/C=C/[C@@H](C)[C@H]1CC[C@H]2C3=CC=C4C[C@@H](O)CC[C@]4(C)[C@H]3CC[C@]12C` [ONC0004611, ergosterol], for which the “% viability” value amounted to 60.59%.

Turning to `CCc1nn(CCO)c(CC)c1Oc1cc(C#N)cc(C#N)c1` [ONC0001814, lersivirine], the “% viability” value was determined as 93.65%.

Consider `O=C(O)CCCc1c[nH]c2ccccc12` [ONC0004667, 3indolebutyric acid iba], for which the “% viability” value was 131.4%.

As to `CC(C)(Oc1ccc(CCNC(=O)c2ccc(Cl)cc2)cc1)C(=O)O` [ONC0004140, bezafibrate], the “% viability” value was found to be 94.73%.

For the compound `OCCN1CCN(CCCN2c3ccccc3Sc3ccc(C(F)(F)F)cc32)CC1` [ONC0003193, fluphenazine hydrochloride], the “% viability” value amounted to 105.7%.

As for `c1ccc(CC2=NCCN2)cc1` [ONC0000573, tolazoline hydrochloride], the “% viability” value was found to be 87.14%.

In the case of `COc1ccc(Cl)cc1C(=O)NCCc1ccc(C(=O)O)cc1` [ONC0002353, meglitinide], the “% viability” value worked out at 70.11%.

In the case of `COc1cccc(-c2c(C)n(Cc3c(F)cccc3C(F)(F)F)c(=O)n(C[C@H](NCCCC(=O)O)c3ccccc3)c2=O)c1F` [ONC0005554, elagolix], the “% viability” value is 166.7%.

As to `CC(=O)c1ccc2c(c1)C(=O)C1(CC1)O2` [ONC0002136, spizofurone], the “% viability” value is recorded as 69.8%.

As for `CC1=C(/C=C/C(C)=C/C=C/C(C)=C/C=C/C=C(C)/C=C/C=C(C)/C=C/C2=C(C)CCCC2(C)C)C(C)(C)CCC1` [ONC0002105, carotene], the “% viability” value is recorded as 58.75%.

As to `CCCCCCCC/C=C\CCCCCCCC(=O)OC(CO)CO` [ONC0005333, 2oleoylglycerol], the “% viability” value turned out to be 121.8%.

`CC[C@H]1OC(=O)[C@H](C)[C@@H](O[C@H]2C[C@@](C)(OC)[C@@H](O)[C@H](C)O2)[C@H](C)[C@@H](O[C@@H]2O[C@H](C)C[C@H](N(C)C)[C@H]2O)[C@](C)(O)C[C@@H](C)C(=O)[C@H](C)[C@@H](O)[C@]1(C)O` [ONC0000718, erythromycin]: the “% viability” value is reported as 71.17%.

Consider `O=C(O)CCc1c(C(=O)O)[nH]c2cc(Cl)cc(Cl)c12` [ONC0001050, mdl29951], for which the “% viability” value stood at 70.31%.

With `CC(C(=O)O)c1ccc(CC2CCCC2=O)cc1` (centres unmarked) [ONC0002427, loxoprofen], the “% viability” value is recorded as 99%.

`O=C(NOCC1CC1)c1ccc(F)c(F)c1Nc1ccc(I)cc1Cl` [ONC0004752, ci1040 pd184352]: the “% viability” value is given as 100.5%.

With `Nc1nc(F)nc2c1ncn2[C@@H]1O[C@H](COP(=O)(O)O)[C@@H](O)[C@@H]1O` [ONC0004083, fludarabine phosphate], the “% viability” value was determined as 101.2%.

For the compound `O=C(N[C@H]1CN2CCC1CC2)c1cc2cccc(Cl)c2s1` [ONC0001314, encenicline hydrochloride], the “% viability” value is reported as 90.3%.

As for `O=C(O[C@H]1[C@H](OC(=O)c2cccnc2)[C@@H](OC(=O)c2cccnc2)[C@H](OC(=O)c2cccnc2)[C@@H](OC(=O)c2cccnc2)[C@H]1OC(=O)c1cccnc1)c1cccnc1` [ONC0003319, inositol nicotinate], the “% viability” value came to 63.29%.

For `O=C(O[C@H]1C[N+]2(CCCOc3ccccc3)CCC1CC2)C(O)(c1cccs1)c1cccs1` [ONC0005111, aclidinium bromide], the “% viability” value is listed as 82.99%.

With `CC(C)Cc1ccc(C(C)C(=O)NO)cc1` (centres unmarked) [ONC0003493, ibuproxam], the “% viability” value turned out to be 73.64%.

Take `Brc1cc2c(cc1[C@@H]1Nc3ccccc3[C@@H]3C=CC[C@@H]31)OCO2.Brc1cc2c(cc1[C@H]1Nc3ccccc3[C@H]3C=CC[C@H]31)OCO2` [ONC0004256, g15]: the “% viability” value came out at 86.1%.

Take `CC(C)(C)N1CCC(c2ccccc2)(c2ccccc2)CC1` [ONC0002755, budipine]: the “% viability” value turned out to be 128.8%.

As for `NC(=O)c1ccccc1O` [ONC0003411, salicylamide], the “% viability” value is recorded as 88.05%.

`C[C@@H](NCCc1ccc(O)cc1)[C@@H](O)c1ccc(O)cc1` (racemic) [ONC0000689, ritodrine hydrochloride]: the “% viability” value was determined as 122.8%.

With `COc1ccc(C(=O)CCC(=O)O)c2ccccc12` [ONC0005282, menbutone], the “% viability” value is 82.17%.

Turning to `O=C(COc1ccc(C(=O)c2ccccc2)cc1)NC1CCN(Cc2ccccc2)CC1` [ONC0000156, adiporon], the “% viability” value is on record as 92.46%.

As to `Sc1ncnc2nc[nH]c12` [ONC0000500, mercaptopurine], the “% viability” value is 72.86%.

As to `COC(F)(F)C(Cl)Cl` [ONC0003659, 22dichloro11difluoroethyl methyl ether], the “% viability” value amounted to 57.79%.

With `CC(Cc1ccccc1)NCCC(c1ccccc1)c1ccccc1` (centres unmarked) [ONC0002952, prenylamine], the “% viability” value is 60.44%.

Turning to `CC(C)C[C@H](NC(=O)[C@H](Cc1ccccc1)NC(=O)c1cnccn1)B(O)O` [ONC0002213, bortezomib], the “% viability” value turned out to be 116.9%.

Take `O=C(OCCN1CCOCC1)C1(c2ccccc2)CCCCC1` [ONC0001736, pre084]: the “% viability” value is reported as 85.15%.

`Nc1nc(=O)n([C@@H]2O[C@H](CO)[C@@H](O)[C@@H]2F)cc1I` [ONC0001084, fiacitabine]: the “% viability” value turned out to be 61.87%.

With `Nc1ccc2ncnc(NCCc3ccc(Oc4ccccc4)cc3)c2c1` [ONC0004571, qnz evp4593], the “% viability” value worked out at 73.82%.

With `Oc1c(Br)cc(Br)c2cccnc12` [Broxyquinoline], the “% viability” value is given as 5.699%.

As to `Cc1cc(Nc2cc(C)c(C#N)c(NC(C)CCCC(C)(C)O)n2)n[nH]1` (centres unmarked) [ONC0001704, tca2317], the “% viability” value was 79.38%.

In the case of `CNc1nc(-c2ccc3c(N)n[nH]c3c2)cc(N2C[C@@H](C(=O)NC3CCCCC3)CC[C@H]2C)n1` [ONC0002484, gsk2334470], the “% viability” value worked out at 37.41%.

As for `COc1ccc(-c2coc3cc(O)ccc3c2=O)cc1` [ONC0005242, formononetin formononetol], the “% viability” value came to 123.3%.

Regarding `CN1CCN(S(=O)(=O)c2ccc(-c3cnc(N)c(C(=O)Nc4cccnc4)n3)cc2)CC1` [ONC0005129, azd2858], the “% viability” value is given as 89.64%.

Turning to `CC(N)(C(=O)O)c1ccc(-c2nnn[nH]2)cc1` (centres unmarked) [ONC0003092, mtpg], the “% viability” value was 85.65%.

Take `C[C@]12CC[C@H](O)C[C@H]1CC[C@@H]1[C@@H]2C[C@@H](O)[C@]2(C)[C@@H](C3=CC(=O)OC3)CC[C@]12O` [ONC0002441, digoxigenin]: the “% viability” value amounted to 96.66%.

Take `CCc1noc(C)c1-c1[nH]c2ccccc2c1C(O)CN(C)C` (centres unmarked) [ONC0005397, sari59801]: the “% viability” value worked out at 156.2%.

For the compound `O=C(Nc1cc(C(F)(F)F)cc(C(F)(F)F)c1)c1cc(Cl)ccc1O` [IKK2 inhibitor V (IMD-0354), IMD-0354], the “% viability” value is on record as 2.589%.

Consider `O=C(Nc1cccnn1)N1CCC(=Cc2cccc(Oc3ccc(C(F)(F)F)cn3)c2)CC1` [ONC0001769, pf04457845], for which the “% viability” value is listed as 98.3%.

On to `C[C@H](N[C@@H](CCc1ccccc1)C(=O)O)C(=O)N1CCC[C@H]1C(=O)O` [ONC0003897, enalaprilat], for which the “% viability” value is 70.49%.

Take `O=C1N[C@H](C(=O)O)CS1` [ONC0005296, procysteine]: the “% viability” value is given as 92.18%.

As to `NC(=O)N1CCC(CC(=O)N2CCC([C@H]3c4ncc(Br)cc4CCc4cc(Cl)cc(Br)c43)CC2)CC1` [ONC0004448, lonafarnib sch66336], the “% viability” value is 106.8%.

With `Nc1nc2nc[nH]c2c(=S)[nH]1` [ONC0003925, tioguanine], the “% viability” value stood at 107.9%.

As to `COCCCC/C(=N\OCCN)c1ccc(C(F)(F)F)cc1` [ONC0004117, fluvoxamine maleate], the “% viability” value was 169.8%.
